Measured values from PubChem BioAssay AID540256 (National Center for Advancing Translational Sciences (NCATS), 2011).
About 3,700 (1.2%) of roughly 300,000 compounds were called active. This list was built around the results that the source calls inconclusive (neither active nor inactive); the mix of calls is not that of the screen. Calls follow the shape of the full dose curve; tested in HEK293 cells. Potencies of inconclusive entries are doubtful fits and often do not repeat.
% is scaled to controls: 0 for no effect and ±100 for the full control effect; potency is read from the fitted curve at half-maximal effect.

Assay: qHTS for Inhibitors of binding or entry into cells for Lassa Virus; also: nearly all actives have a fitted effect of over 50% in size
Conditions: Lassa virus pseudotype entry inhibition, cell reporter; activity change, negative = inhibition: at 37.9 µM (top of the series) unless noted
In the case of `O=C(NCCN1CCOCC1)C1CCN(c2nc3ccccc3o2)CC1`, the Potency is reported as inconclusive: 0.146 µM [inhibitor, full curve, poor fit].
For `O=C1N=C(N2CCCCC2)SC1=C1CCCCC1`, the Potency was inconclusive: 4.47 µM [activator, full curve, poor fit].
In the case of `CCN(CC(=O)NCc1ccc(Cl)cc1)C(=O)c1cc2ccccc2o1`, the Potency is reported as inconclusive: 1.26 µM [inhibitor, single point].
In the case of `c1ccc2sc(C3CCNCC3)nc2c1`, the Potency is reported as inconclusive: 25.1 µM [activator, single point].
In the case of `Cc1ccc(NC(=O)c2cc(-c3ccco3)on2)cc1`, the “activity change, negative = inhibition” value is reported as inactive: 0.964%.
With `COc1ccccc1-c1noc(-c2ccc(N3CCOCC3)c([N+](=O)[O-])c2)n1` the “activity change, negative = inhibition” value was inactive: -26.6% [at 46.1 µM].
For `COc1ccc(-c2ccc3ccccc3n2)cc1`, the Potency was inconclusive: 10 µM [inhibitor, partial curve].
In the case of `COc1ccc(/C=N/NC(=O)c2ccc(Cl)cc2Cl)cc1COC(C)=O`, the Potency is reported as inconclusive: 15.8 µM [inhibitor, single point].
With `Cc1ccc(C(C)(C)C)c(OCCOCCN2CCCC2)c1` the Potency was inconclusive: 23.1 µM [inhibitor, single point].
For `COc1ccc(-c2ccnc(-c3ccc(OCCCF)cc3)n2)cc1`, the Potency was inconclusive: 10 µM [inhibitor, partial curve].
In the case of `COc1ccccc1N1CCN(C(=O)c2cc3c(=O)n(C)c4ccccc4c3s2)CC1`, the “activity change, negative = inhibition” value is reported as inactive: 9.96% [at 46.1 µM].
For `CC12CCC(=O)N1C(C(=O)Nc1nc(-c3ccccc3Cl)cs1)CS2` (centres undefined), the “activity change, negative = inhibition” value was inactive: -19%.
For `COc1ccc(-c2nc(SCC(=O)NC3CCCC3)c(-c3ccc(OC)cc3)[nH]2)cc1`, the Potency was inconclusive: 23.1 µM [inhibitor, single point].
With `O=C(Nc1cc2c(cc1Cl)-c1ccc([N+](=O)[O-])cc1C2=NO)C(F)(F)F` the “activity change, negative = inhibition” value was inactive: -0.157%.
With `Cc1c(Cl)cccc1-n1ncc(C(=O)N2CCN(C)CC2)c1C1CCN(C(=O)OC(C)(C)C)CC1` the Potency was inconclusive: 1.41 µM [inhibitor, partial curve, poor fit].
For `CC(C)COc1ccc(C(=O)Nc2ccc(NC(=O)c3ccco3)c(Cl)c2)cc1`, the Potency was inconclusive: 35.5 µM [inhibitor, single point].
In the case of `CC1CCN(C(=O)c2ccc3c(c2)N(Cc2ccccc2F)C(=O)c2ccccc2S3(=O)=O)CC1`, the “activity change, negative = inhibition” value is reported as inactive: -24.6% [at 46.1 µM].
For `O=S1(=O)N(Cc2ccc(F)cc2)CCCN1Cc1ccccc1Cl`, the Potency was inconclusive: 7.08 µM [activator, partial curve, poor fit].
With `Cc1cccc(NC(=O)c2ccc([N+](=O)[O-])o2)c1` the Potency was inconclusive: 12.6 µM [inhibitor, partial curve, poor fit].
